# Data reported in patent US20090018121A1, “PREVENTIVE AND/OR THERAPEUTIC AGENT FOR RHEUMATOID ARTHRITIS” (Kowa Co., Ltd., priority 2005, published 2009).
# Some entries share one result that the patent states for a list of compounds.
# Tested on: rat collagen-induced arthritis model
# Test: Edema suppressing effect in both hindlimbs in rat collagen-induced arthritis model (Edema Index)
# Format: in vivo, rat (female Lewis, LEW/Crj)
# Conditions: sole administration
# Description: Female Lewis rats (LEW/Crj) (obtained from Charles River Laboratories Japan, Inc.) were used as test animals.
# This Pre value was used as an index to divide the rats into groups by one-parameter-based block randomization, so that the values in the respective groups averaged out.
# The collagen emulsion for sensitization used to induce arthritis in rats was prepared by homogenizing 0.3% Type II collagen liquid (manufactured by Collagen Research Center), Adjuvant Peptide (manufactured by Peptide Institute, Inc.) and Adjuvant Incomplete Freund (manufactured by DIFCO), using a Handy Micro Homogenizer (manufactured by Microtec Nition) under ice-cooling. The collagen emulsion thus prepared was intracutaneously administered at 10 sites in the back of each rat at a dose of 0.1 mL/site, to perform initial sensitization of the rat. […]
# 14 Days and 18 days after the initial sensitization, respectively, the hindlimbs volume was measured again for each rat, and the difference between each of the values and the Pre value was determined to calculate the edema volume for both hindlimbs. The sum of the edema volumes for both hindlimbs measured 14 days and 18 days after the initial sensitization was calculated as the Edema Index, and this was taken as an index for the effect of the drug. […]
smiles,measurement,setting,value
"CSc1ccc(-c2nn(Cc3ccccc3)c(=O)cc2-c2ccc(Cl)cc2)cc1 [Drug A, 2-benzyl-5-(4-chlorophenyl)-6-[4-(methylthio)phenyl]-2H-pyridazin-3-one]",Decrease rate of Edema Index vs control group (%),3 mg/kg,> 50%
same,Decrease rate of Edema Index vs control group (%),10 mg/kg,> 50%
